Values from PubChem BioAssay AID493246 (Drosophila RNAi Screening Center, 2011).

Screen: 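Genome-wide search for dsRNAs that reduce cell number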 (primary screen)
Cell system: Drosophila Kc and S2R+ cells
Reagent: long dsRNA against Drosophila genes
Measurement: 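Cell number per well after knock-down, printed as raw plate values; calls were based on per-plate z-scores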
Reading the numbers: Kc cell number and S2R+ cell number: higher = more cells remaining
Call rule: 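Counted as a hit if cell number falls by a z-score of at least 3 within its plate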
The deposit covers about 21,000 reagents; shown is an unselected part of those that have a named target and a result. In the full data, 429 (2%) were called active. 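Values are raw and not normalised between plates; calls rest on per-plate z-scores that were not deposited.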 Unmarked entries are inactive. Not given: the amount of reagent, the time to read-out.

| gene knocked down | DRSC id | Kc cell number, rep 1 | Kc cell number, rep 2 | S2R+ cell number, rep 1 | S2R+ cell number, rep 2 |
| --- | --- | --- | --- | --- | --- |
| CG1998 | DRSC19829 | 1.66e6 | 1.79e6 | 1.10e6 | 1.22e6 |
| CG7737 | DRSC07033 | 1.25e6 | 1.36e6 | 1.11e6 | 1.15e6 |
| CG13344 | DRSC06378 | 1.37e6 | 1.43e6 | 1.11e6 | 1.18e6 |
| CG30380 | DRSC05069 | 1.46e6 | 1.58e6 | 1.02e6 | 1.11e6 |
| grh | DRSC05680 | 7.04e5 | – | 8.63e5 | – |
| grh | DRSC05683 | 5.24e5 | – | 7.26e5 | – |
| grh | DRSC07624 | 1.29e6 | 1.40e6 | 1.05e6 | 1.21e6 |
| grh | DRSC07625 | 1.48e6 | 1.51e6 | 1.16e6 | 1.29e6 |
| Fam92 | DRSC02952 | 1.32e6 | 1.36e6 | 1.08e6 | 1.19e6 |
| CG31176 | DRSC15038 | 1.30e6 | 1.36e6 | 1.02e6 | 1.06e6 |
| CG31176 | DRSC16021 | 1.36e6 | 1.34e6 | 1.00e6 | 1.07e6 |
| Cyp4g1 | DRSC18459 | 4.94e5 | – | 7.27e5 | – |
| cno | DRSC12054 | 1.43e6 | 1.50e6 | 1.18e6 | 1.30e6 |
| cno | DRSC12374 | 1.08e6 (active) | 1.13e6 | 4.90e5 | 6.04e5 |
| qkr54B | DRSC07670 | 1.45e6 | 1.55e6 | 1.11e6 | 1.23e6 |
| prom | DRSC04684 | 1.42e6 | 1.51e6 | 1.25e6 | 1.33e6 |
| Jhbp14 | DRSC01988 | 1.69e6 | 1.74e6 | 1.38e6 | 1.58e6 |
| CG15611 | DRSC06563 | 1.32e6 | 1.44e6 | 9.66e5 | 1.07e6 |
| CG15611 | DRSC06564 | 1.51e6 | 1.55e6 | 1.11e6 | 1.17e6 |
| UBL3 | DRSC20298 | 1.54e6 | 1.55e6 | 1.05e6 | 1.21e6 |
| CG11155 | DRSC17184 | 1.06e6 | 1.39e6 | 1.07e6 | 1.04e6 |
| CG11155 | DRSC17205 | 4.77e5 | – | 8.76e5 | – |
| Or69a | DRSC11243 | 1.31e6 | 1.39e6 | 1.22e6 | 1.33e6 |
| su(r) | DRSC18705 | 5.65e5 | – | 9.14e5 | – |

Active calls (from the list above):
| gene knocked down | DRSC id | Kc cell number, rep 1 | Kc cell number, rep 2 | S2R+ cell number, rep 1 | S2R+ cell number, rep 2 |
| --- | --- | --- | --- | --- | --- |
| cno | DRSC12374 | 1.08e6 (active) | 1.13e6 | 4.90e5 | 6.04e5 |
